For data set [1], the target named is c-Jun (Homo sapiens) (UniProt P05412). As to the kind of experiment: EMSA supershift. As to conditions: EMSA: 5 ug nuclear extract, nuclear extraction buffer (composition not given) with 130 ng/uL poly dIdC, 0.7 mg/mL BSA, 15% glycerol, 30 min room temperature, 4% gel, protein in an extract, label: 32P. In general terms: Mobility shift assays separate free from complexed probe on a gel.

Sequences of proteins named here, by UniProt entry; tags and fusion partners are left off.
UniProt P05412, whole entry: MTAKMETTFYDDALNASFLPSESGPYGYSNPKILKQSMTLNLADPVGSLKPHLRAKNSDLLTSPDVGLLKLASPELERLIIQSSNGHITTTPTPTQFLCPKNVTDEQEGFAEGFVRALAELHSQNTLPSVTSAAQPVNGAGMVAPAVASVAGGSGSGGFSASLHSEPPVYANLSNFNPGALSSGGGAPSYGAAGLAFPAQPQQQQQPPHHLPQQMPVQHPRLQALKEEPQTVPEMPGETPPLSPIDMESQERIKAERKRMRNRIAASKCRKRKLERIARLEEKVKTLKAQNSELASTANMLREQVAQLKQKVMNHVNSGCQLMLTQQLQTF
UniProt Q15796, whole entry: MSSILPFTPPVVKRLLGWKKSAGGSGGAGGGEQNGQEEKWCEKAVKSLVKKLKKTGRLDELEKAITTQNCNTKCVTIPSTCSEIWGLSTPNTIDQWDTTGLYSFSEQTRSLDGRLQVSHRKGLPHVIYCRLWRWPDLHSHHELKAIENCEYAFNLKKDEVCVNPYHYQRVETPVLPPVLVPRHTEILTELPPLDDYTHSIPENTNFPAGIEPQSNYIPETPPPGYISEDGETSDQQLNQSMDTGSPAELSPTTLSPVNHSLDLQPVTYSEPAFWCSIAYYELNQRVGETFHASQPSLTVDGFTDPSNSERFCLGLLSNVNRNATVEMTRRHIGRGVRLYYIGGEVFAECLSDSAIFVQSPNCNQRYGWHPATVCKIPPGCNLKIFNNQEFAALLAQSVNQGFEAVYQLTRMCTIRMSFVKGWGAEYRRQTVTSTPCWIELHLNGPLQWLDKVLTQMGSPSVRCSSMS

The target in data set [2] is phospho-Smad2 (Homo sapiens) (UniProt Q15796). As to the kind of experiment: DNA pull-down, immunoblot. As to conditions: pull-down: 1 ug DNA, 300 ug extract, 0.2 mg/mL salmon DNA, 30 min RT, then beads with 150 mM NaCl 3 h 4 C, pH not stated, protein in an extract.
Data set [3] has as its target c-Jun (Homo sapiens) (UniProt P05412). Briefly: DNA pull-down, immunoblot. As to conditions: nuclear extract from bortezomib-treated fibroblasts, marked increase vs untreated; pull-down: 1 ug DNA, 300 ug extract, 0.2 mg/mL salmon DNA, 30 min RT, then beads with 150 mM NaCl 3 h 4 C; pH not stated; protein in an extract. Background: Immunoblotting shows a protein as a band on a membrane.

For at least one entry, the source does not settle the construct or the ends of the probe. Results from cells or extracts need not show a direct contact. For part of these data: At least one verdict was read from the data and is not stated in words by the source.

Regarding “CTAGTGATGAGTCAGCCGGATC (double strand) [MMP-1 AP-1 EMSA probe]”, the binding result with c-Jun (Homo sapiens) [1] (nuclear extract from TNF-alpha-treated fibroblasts (10 ng/mL, 1 h)) was “binds”; with c-Jun (Homo sapiens) [1] (nuclear extract from bortezomib-treated fibroblasts (1 uM, 16 h)), “binds”; in the data set with c-Jun (Homo sapiens) [1] (nuclear extract from untreated fibroblasts, anti-c-Jun supershift), “binds”.
For “GAAAGGGCGGGGGAGGGCGGGAGGATGCGGAGGGCGGAG (double strand) [Biotin-COL1A2 pull-down probe]”, the binding result is recorded as “binds” in data set [2] (nuclear extract from TGF-beta + bortezomib-treated fibroblasts, enhanced vs TGF-beta alone) and “binds” in data set [2] (nuclear extract from TGF-beta-treated fibroblasts (5 ng/mL), substantial increase vs untreated).
For “GATCGAGAGGATGTTATAAAGCATGAGTCAG (double strand) [Biotin-MMP-1 pull-down probe]”, the binding result with c-Jun (Homo sapiens) [3] is “binds”.
